Measurements taken from paper PMC4863586.
No constants are given. Whether binding was seen depends on the method and setting. In cells and extracts the contact can be indirect. Here binding means that the protein was enriched with, or labelled near, the bait; the list need not be complete. A no says only that the protein was not detected with the bait.

B1: ROP4 (protein, UniProt Q5Y808 34-578)
chain: RQRPHQWKSSEAALSVSPAGDIVDKYSRDSTEGENTVSEGEAEGSRGGSWLEQEGVELRSPSQDSQTGTSTASPTGFRRLLRRLRFWRRGSTRGSDDAAEVSRRTRVPLHTRLLQHLRRVARIIRHGVSAAAGRLFGRVRQVEAERPQPVFTEGDPPDLETNSLYYRDKVPGQGIIQEILRQKPGIAHHPESFSVVAADERVSRTLWAEGGVVRVASELGQPGRVLVRGRRIGLFRPGMQFEATDQATGEPMTALVGHTVLEATARDVDSMRNEGLAVGLFQKVKNPYLANRYLRFLAPFDLVTIPGKPLVQKAKSRNEVGWVKNLLFLLPPTHVDMETFVDEIGRFPQEDRPLADAARLYLTVQAVRLVAHLQDEGVVHGKIMPDSFCLKREGGLYLRDFGSLVRAGAKVVVPAEYDEYTPPEGRAAARSRFGSGATTMTYAFDAWTLGSVIFLIWCSRAPDTKSGYEYSVEFFFSRCRRVPENVKLLVYKLINPSVEARLLALQAIETPEYREMEEQLSAASRLYSGDGTLTGGDDDMPPLET
B2: ROP17 (protein, UniProt Q2PAY3 22-608)
chain: LLLRSPTSNDVFGELVASAERAQPLATRLTKRISRLNFNDREDDFWEDHGDASWNNSYTLVNGRTTLGSENRRRPASHSLIERPYYRDGRLSPVLGVQERRGRSVHSYHEEPVSFFDQRAFDEYTFRRRSQLHRQRARAGLRSRIKQNVRRLWTSARGAVRGWGRRVRRKIGDLFVGHLMPQLRRLRFWDQGLPPVVPPLIGNEPGQASVALVAERMEARLREKTLTEKNPTEAQQAVGTYLINSAENTWFISIPGGRYILLKKRGFLGGGGFGLVYHVEHPTTGQPFALKIFVQRVMNNEVGDKISDLIEDEFGVMKYFPPEWTPARMYSELRFMVPLLKLRVLGKPEFQDARNHLRIFSVCALFPKAQGDLEEAAALLADMDRTNAYNMRMSSTIQMVKLLARFHAFGLVHGDVKLQNFLVDKSGLLLLSDFTQILRTNERRYPPVVTVLYMSPEIATCLITRLRNAIPYTAEIDSWMLGISLYRLWCGDFPFGITLDATALQVAGIVIRSSASSLDFASCHDIPEQFREMIVGFLRKTPGVRLSPQQALEQFSLLNWKGPSPASDTASESEPVSTEEAALLQKE

Biological target: ROP54 with C-terminal 2×Strep 3×Flag epitope tag (ROP54SFII) (Toxoplasma gondii (type II, Pru∆ku80))
Experiment: affinity purification with mass spectrometry; ROP54SFII parasite lysate (0.5% NP-40, 150 mM NaCl, protease inhibitors) on Strep-Tactin beads 4 h at room temperature, eluted with 10 mM desthiobiotin; the remainder of the eluate analysed by mass spectrometry

Binder	binding
B1	no binding
B2	no binding
